Test results reported in patent US8691187B2, “Imaging agents for detecting neurological disorders” (Eli Lilly and Company, priority 2009, dated 2014).

Test system: human AD brain slices
Assay: Human AD brain section autoradiography with F-18 tracer
Format: binding
From the text: Furthermore, the selectivity can be evaluated in brains containing only Aβ plaques/no tau aggregates, Aβ plaques/and tau aggregates, and control brains. Unfortunately, there are no AD brains with only tau and no Aβ present. By testing radiolabeled tracers in these brain sections, one can more quantitative evaluate the relative binding strength (signal strength) and selectivity of various test compounds as they all contain the same radioactive tracer. For examples, if a test tracer binds only to tau, and not amyloid, it should show no signal in the Aβ plaques only brain sections. If a compound binds only to amyloid, it should show uptake in both types of brains. The difficulty of identifying and further quantifying selective compounds lies in the relative abundance of amyloid vs. tau, which is difficult to measure.
Human AD Brain Section Autoradiography
5 micron thick human AD brain slices were first examined using antibodies for Aβ and Tau to determine whether the tested human brain contains Aβ and Tau. Thus, three types of human brain slices were selected for autoradiography: Aβ+/Tau+; Aβ+/Tau−; and Aβ−/Tau−(control).
The experimental protocol is as follows:
Pick one brain section for each type and air-dry in hood. […] The imaging plates were then scanned and the signal was measured using Fuji software to produce an autoradiography image of the brain section. […]

Structure (SMILES) | background (normal brain 32566) [PSL/mm2]
FC1CCN(c2ccn3c(n2)nc2ccccc23)CC1 [Compound T777, 2-(4-fluoropiperidin-1-yl)benzo[4,5]imidazo[1,2-a]pyrimidine] | 21
FCCC1CCN(c2ccn3c(n2)nc2ccccc23)CC1 [Compound T808, 2-(4-(2-fluoroethyl)piperidin-1-yl)benzo[4,5]imidazo[1,2-a]pyrimidine] | 42
